# Source: the supplement of paper PMC12823440, “Inhibitors supercharge kinase turnover through native proteolytic circuits” (Nature, 2025)
# Chains of the proteins cited; added tags and fusions are not shown. Lines headed by an entry give the natural chain unless they say otherwise; changes in a name come on top.
# UniProt Q8IWU2: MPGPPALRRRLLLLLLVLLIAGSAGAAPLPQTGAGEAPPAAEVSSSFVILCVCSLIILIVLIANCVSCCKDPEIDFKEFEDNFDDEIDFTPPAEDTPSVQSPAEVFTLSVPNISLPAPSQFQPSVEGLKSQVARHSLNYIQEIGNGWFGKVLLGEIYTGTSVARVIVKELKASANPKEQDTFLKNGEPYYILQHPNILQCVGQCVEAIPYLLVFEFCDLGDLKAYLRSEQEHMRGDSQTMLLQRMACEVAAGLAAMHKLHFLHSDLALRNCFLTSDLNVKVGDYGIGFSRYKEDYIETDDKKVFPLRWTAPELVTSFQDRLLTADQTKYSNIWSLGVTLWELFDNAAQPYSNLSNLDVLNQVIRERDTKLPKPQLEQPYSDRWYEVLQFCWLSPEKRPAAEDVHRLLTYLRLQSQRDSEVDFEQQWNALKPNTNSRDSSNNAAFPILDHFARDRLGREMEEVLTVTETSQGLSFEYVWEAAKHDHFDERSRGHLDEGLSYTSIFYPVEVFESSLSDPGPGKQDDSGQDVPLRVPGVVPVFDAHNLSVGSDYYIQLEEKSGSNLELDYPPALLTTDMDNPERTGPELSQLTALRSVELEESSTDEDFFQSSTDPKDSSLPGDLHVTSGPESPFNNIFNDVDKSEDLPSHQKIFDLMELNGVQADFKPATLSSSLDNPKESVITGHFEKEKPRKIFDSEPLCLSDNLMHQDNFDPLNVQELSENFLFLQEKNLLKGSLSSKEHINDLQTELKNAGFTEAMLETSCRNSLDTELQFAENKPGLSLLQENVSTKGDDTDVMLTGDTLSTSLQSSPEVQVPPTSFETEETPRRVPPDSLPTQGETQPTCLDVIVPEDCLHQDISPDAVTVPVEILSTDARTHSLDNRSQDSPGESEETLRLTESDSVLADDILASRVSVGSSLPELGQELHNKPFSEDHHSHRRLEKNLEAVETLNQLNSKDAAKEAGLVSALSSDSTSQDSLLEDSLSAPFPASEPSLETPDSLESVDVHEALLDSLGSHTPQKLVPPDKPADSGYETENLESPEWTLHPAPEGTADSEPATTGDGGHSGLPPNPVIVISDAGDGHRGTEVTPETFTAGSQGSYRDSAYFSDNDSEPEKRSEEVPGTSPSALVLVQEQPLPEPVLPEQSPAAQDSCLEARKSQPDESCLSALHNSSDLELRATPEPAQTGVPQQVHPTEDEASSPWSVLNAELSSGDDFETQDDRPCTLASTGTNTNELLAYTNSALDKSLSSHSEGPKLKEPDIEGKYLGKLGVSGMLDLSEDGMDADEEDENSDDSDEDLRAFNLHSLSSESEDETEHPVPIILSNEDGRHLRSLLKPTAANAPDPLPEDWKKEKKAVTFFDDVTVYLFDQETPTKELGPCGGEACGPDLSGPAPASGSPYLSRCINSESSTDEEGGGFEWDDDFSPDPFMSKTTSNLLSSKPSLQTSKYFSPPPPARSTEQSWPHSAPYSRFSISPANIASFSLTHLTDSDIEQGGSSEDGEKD
# The list shows a part of the results. Hit calls seldom repeat between salt and free forms of one compound.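 Kinases were expressed as nanoluciferase fusions in K562 cells and luminescence was read every 4 h between 2 and 18 h as percent of control, DMSO set to 100% and a positive control to 0%. A time point counts as decreased when the signal drops significantly (2 sigma). The hit call is the authors' own, does not follow from the count of time points alone, and its rule is not shown.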
# Target: LMTK2 (UniProt Q8IWU2)
# Test: number of time points (of 5) at which kinase-Nluc abundance scored as decreased, DMSO-normalised (count); higher = more persistent destabilization
# Details: K562; 2-18 h
row,Compound,number of time points
1,Cc1cnc(Cl)nc1-c1ccc(N(Cc2ccc(CNC(=O)C(F)F)cc2)C(=O)c2ccc(O)cc2O)cc1 (10 µM),0
2,COc1cc2c(cc1OC)[C@@H]1C(=O)c3ccc4c(c3O[C@@H]1CO2)C=CC(C)(C)O4 [Deguelin] (10 µM),1
3,CC(C)(CCCCCC(O)CCCCCC(C)(C)C(=O)O)C(=O)O [Bempedoic acid] (10 µM),0
4,COc1cc2nnc(C(N)=O)c(Nc3ccc(C)cc3F)c2cc1N1CCN(CCO)CC1 (2.5 µM),0
5,O=C(Nc1ccc(Cl)cc1)C1CN(C(=O)c2cccc(-c3ccco3)c2)CC(F)(F)C1 (configuration not stated) (2.5 µM),0
6,CC(=O)O[C@@H]1[C@@H](OC(C)=O)[C@@H](O)[C@H](Oc2c(-c3ccc(O)cc3)oc3cc(O)cc(O)c3c2=O)O[C@H]1C (10 µM),0
7,COc1cc2nc(-c3cc(F)ccc3O)nc(N[C@@H]3CNC[C@H]3C(C)(C)O)c2cc1OC (2.5 µM),0
8,C=CC(=O)Nc1cccc(Oc2nc(Nc3ccc(N4CCN(C)CC4)cc3OC)ncc2Cl)c1 (10 µM),0
9,C=CC(=O)Nc1cc(Nc2nccc(-c3cn(C)c4ccccc34)n2)c(OCC(F)(F)F)nc1N(C)CCNC [AST5902  (trimesylate)] (2.5 µM),0
10,O=C1C=CC2=C3c4cc(O)c(O)cc4CC3(O)COC2=C1O (configuration not stated) [Hematein] (10 µM),0
11,CCC(F)(F)c1cc(N2CCC(S(C)(=O)=O)CC2)nc2sc(C(N)=O)c(N)c12 (10 µM),0
12,Cn1cc(C2=C(c3ccc(Cl)cc3Cl)C(=O)NC2=O)c2ccccc21 (10 µM),0
